Experimental data from patent US20200377551A1, “PEPTIDE CONSTRUCTS AND METHODS FOR ENHANCEMENT OF INTERFERON PRODUCTION” (Wake Forest University Health Sciences, priority 2019, published 2020).
For at least one compound, name, drawing or mass did not settle the structure.

Legend:
RLR signaling = format: cell-based
HEK293 cells = assay: Lactate level measurement in HEK293 cells; format: cell-based; conditions: DCA (10 mM)

O=C(O)C(Cl)Cl [DCA, dichloroacetate]
IFN-β induction upon RLR activation (RLR signaling): promoted
lactate level (HEK293 cells): reduction of lactate level
